Results: the supplement of paper PMC10849652
This is one part of the list. Residues, ends and D or L forms follow the SMILES beside them. *: point of attachment. Cbz = O=C(OCc1ccccc1)*

Sequences of proteins named here, by UniProt entry; tags and fusion partners are left off. A change or cut given only in a name is not applied to a line headed by its entry.
UniProt Q9UL40: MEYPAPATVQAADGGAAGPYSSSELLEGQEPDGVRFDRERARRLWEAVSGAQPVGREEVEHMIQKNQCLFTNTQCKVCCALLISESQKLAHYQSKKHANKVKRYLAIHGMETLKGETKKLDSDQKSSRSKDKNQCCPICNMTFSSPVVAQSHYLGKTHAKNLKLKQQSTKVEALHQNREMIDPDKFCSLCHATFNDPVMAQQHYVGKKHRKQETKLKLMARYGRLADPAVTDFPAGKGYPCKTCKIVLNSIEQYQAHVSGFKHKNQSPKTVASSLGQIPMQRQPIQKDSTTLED
UniProt Q8TF68: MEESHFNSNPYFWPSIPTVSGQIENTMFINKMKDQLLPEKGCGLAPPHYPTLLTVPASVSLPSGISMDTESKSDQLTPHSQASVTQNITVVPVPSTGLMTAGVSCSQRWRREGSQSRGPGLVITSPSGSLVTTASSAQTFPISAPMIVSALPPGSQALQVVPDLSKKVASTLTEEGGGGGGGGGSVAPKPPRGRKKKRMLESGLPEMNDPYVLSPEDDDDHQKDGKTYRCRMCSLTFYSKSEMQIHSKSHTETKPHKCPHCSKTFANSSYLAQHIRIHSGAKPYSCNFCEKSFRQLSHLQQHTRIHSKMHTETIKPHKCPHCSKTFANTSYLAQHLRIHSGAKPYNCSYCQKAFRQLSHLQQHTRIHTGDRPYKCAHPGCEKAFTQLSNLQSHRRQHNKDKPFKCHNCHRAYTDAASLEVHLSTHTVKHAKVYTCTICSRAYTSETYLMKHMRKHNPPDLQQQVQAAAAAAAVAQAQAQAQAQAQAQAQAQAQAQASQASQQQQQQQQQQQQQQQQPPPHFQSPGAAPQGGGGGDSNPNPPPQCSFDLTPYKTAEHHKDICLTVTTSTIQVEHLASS

Target: ZNF346 (UniProt Q9UL40)
Test: log2 fold change, soluble protein after heating vs DMSO (PISA); higher = thermal stabilisation; K562 cells, 10 uM, 30 min; active = over 0.2 and 3.5 SD of the protein, either way, in both replicates (recomputed)
Summary of the method: (§1)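 K562 cells at 2×10^6 cells/mL were exposed to 10 μM compound for 30 min, then aliquots were heated for 3 min across 48°C-58°C, pooled, and extracted in PBS containing 0.5% NP-40 at 4°C. The supernatant after 21,000xg for 90 min was taken as soluble protein and measured by TMTpro 16plex LC-MS/MS with channel sums equalised. Thermal stability is reported relative to control samples, with values from duplicates. Fold changes are given on a log2 scale.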

log2 fold change, inactive:
C=CC(=O)N1CCC[C@@H](n2nc(-c3ccc(Oc4ccccc4)cc3)c3c(N)ncnc32)C1 [ibrutinib] 0.033
COc1cc(C(=O)O)ccc1NC(=O)[C@@H]1N[C@@H](CC(C)(C)C)[C@](C#N)(c2ccc(Cl)cc2F)[C@H]1c1cccc(Cl)c1F [idasanutlin] -0.049
CCCc1cc(C)[nH]c(=O)c1CNC(=O)c1cc(-c2ccnc(N3CCN(C)CC3)c2)cc2c1cnn2C(C)C -0.092
CC[C@H](C)n1cc(C)c2c(C(=O)NCc3c(C)cc(C)[nH]c3=O)cc(-c3ccc(N4CCNCC4)nc3)cc21 0.074
Cn1cc(-c2ccc3nnc(C(F)(F)c4ccc5ncccc5c4)n3n2)cn1 0.066
Cn1cc(-c2ccc3c(c2)CCN3C(=O)Cc2cccc(C(F)(F)F)c2)c2c(N)ncnc21 -0.043
O=C1c2ccccc2-c2n[nH]c3cccc1c23 -0.05
Oc1cc(-c2nc(-c3ccccc3)[nH]c2-c2ccncc2)ccc1Cl -0.006
Cc1ccc(NC(=O)c2cccc(N(C)C)c2)cc1NC(=O)c1ccc(O)cc1 -0.045
CC(C)C[C@@H](C=O)NC(=O)[C@H](CC(C)C)NC(=O)[C@H](CC(C)C)NC(=O)OCc1ccccc1 (Cbz-Leu-Leu-Leu-aldehyde) -0.012
CC(=O)c1cnc2ccc(-c3cc(Cl)c(O)c(Cl)c3)nc2c1N[C@H]1CC[C@H](CN(C)C)CC1 -0.246
O=C(O)c1ccc2c(c1)nc(Nc1cccc(Cl)c1)c1ccncc12 [silmitasertib] 0.074
O=C1NC(=NCc2cccs2)S/C1=C\c1ccc2ncccc2c1 0.182
COc1cccc2cc(-c3nc([C@H]4CC[C@H](C(=O)O)CC4)n4ncnc(N)c34)[nH]c12 -0.034
CC(C)(C)Cn1c(N)nc2ccc(-c3[nH]c(C(C)(C)C)nc3-c3ccc(F)cc3)nc21 [ralimetinib] 0.033
Cc1ccc(C(=O)N(CCCN)[C@@H](c2nc3cc(Cl)ccc3c(=O)n2Cc2ccccc2)C(C)C)cc1 [ispinesib] -0.057
O=C1NC(=O)/C(=C\c2ccc3nccnc3c2)S1 0.014
Cc1ncc(-c2ccnc(Nc3ccc(S(C)(=O)=O)cc3)n2)n1C(C)C -0.1
FC(F)(F)c1ccc(/C=C/c2nc(COc3ccc(CCCCn4ccnn4)cc3)co2)cc1 [mubritinib] 0.087
NC(=O)c1cnc(N[C@@H]2CCCC[C@@H]2N)nc1Nc1cccc(-n2nccn2)c1 -0.154
Cc1ccc(NC(=O)c2ccc(CN3CC[C@H](N(C)C)C3)c(C(F)(F)F)c2)cc1Nc1nccc(-c2cncnc2)n1 [bafetinib] -0.006
CO[C@H]1C[C@@H]2CC[C@@H](C)[C@@](O)(O2)C(=O)C(=O)N2CCCC[C@H]2C(=O)O[C@H]([C@H](C)C[C@@H]2CC[C@H](n3cnnn3)[C@H](OC)C2)CC(=O)[C@H](C)/C=C(\C)[C@@H](O)[C@@H](OC)C(=O)[C@H](C)C[C@H](C)/C=C/C=C/C=C/1C [zotarolimus] -0.053
C[C@@H](N)c1ccc(C(=O)Nc2ccnc3[nH]ccc23)cc1 0.077
Cc1nc(Nc2n[nH]c3c2CN(C(=O)N[C@H](CN(C)C)c2ccccc2)C3(C)C)c2sccc2n1 0.095
C/C(=N\NC(=O)c1cccc(S(=O)(=O)N2CCOCC2)c1)c1cc(Cl)ccc1O -0.103
NC1(c2ccc(-c3nc4ccn5c(=O)[nH]nc5c4cc3-c3ccccc3)cc2)CCC1 0.086
CCN(CCCOc1ccc2c(Nc3cc(CC(=O)Nc4cccc(F)c4)[nH]n3)ncnc2c1)CCOP(=O)(O)O [barasertib] 0.016
Cc1cn(-c2cc(NC(=O)c3ccc(C)c(Nc4nccc(-c5cccnc5)n4)c3)cc(C(F)(F)F)c2)cn1 [nilotinib] -0.177
COc1cc(Nc2ncc3c(n2)-c2ccc(Cl)cc2C(c2c(F)cccc2OC)=NC3)ccc1C(=O)O [alisertib] -0.091
COc1cc2ncnc(Nc3ccc(F)c(Cl)c3)c2cc1OCCCN1CCOCC1 [gefitinib] 0.011

Target: ZNF384 (UniProt Q8TF68)
Test: as above
Summary of the method: as §1

log2 fold change, inactive:
C=CC(=O)N1CCC[C@@H](n2nc(-c3ccc(Oc4ccccc4)cc3)c3c(N)ncnc32)C1 [ibrutinib] -0.043
COc1cc(C(=O)O)ccc1NC(=O)[C@@H]1N[C@@H](CC(C)(C)C)[C@](C#N)(c2ccc(Cl)cc2F)[C@H]1c1cccc(Cl)c1F [idasanutlin] 0.14
CCCc1cc(C)[nH]c(=O)c1CNC(=O)c1cc(-c2ccnc(N3CCN(C)CC3)c2)cc2c1cnn2C(C)C 0.172
Cn1cc(-c2ccc3c(c2)CCN3C(=O)Cc2cccc(C(F)(F)F)c2)c2c(N)ncnc21 -0.034
O=C1c2ccccc2-c2n[nH]c3cccc1c23 -0.009
CC(=O)c1cnc2ccc(-c3cc(Cl)c(O)c(Cl)c3)nc2c1N[C@H]1CC[C@H](CN(C)C)CC1 0.045
O=C(O)c1ccc2c(c1)nc(Nc1cccc(Cl)c1)c1ccncc12 [silmitasertib] 0.125
O=C1NC(=NCc2cccs2)S/C1=C\c1ccc2ncccc2c1 -0.067
COc1cccc2cc(-c3nc([C@H]4CC[C@H](C(=O)O)CC4)n4ncnc(N)c34)[nH]c12 0.046
O=C1NC(=O)/C(=C\c2ccc3nccnc3c2)S1 -0.022
FC(F)(F)c1ccc(/C=C/c2nc(COc3ccc(CCCCn4ccnn4)cc3)co2)cc1 [mubritinib] -0.21
NC(=O)c1cnc(N[C@@H]2CCCC[C@@H]2N)nc1Nc1cccc(-n2nccn2)c1 0.017
Cc1ccc(NC(=O)c2ccc(CN3CC[C@H](N(C)C)C3)c(C(F)(F)F)c2)cc1Nc1nccc(-c2cncnc2)n1 [bafetinib] -0.382
CO[C@H]1C[C@@H]2CC[C@@H](C)[C@@](O)(O2)C(=O)C(=O)N2CCCC[C@H]2C(=O)O[C@H]([C@H](C)C[C@@H]2CC[C@H](n3cnnn3)[C@H](OC)C2)CC(=O)[C@H](C)/C=C(\C)[C@@H](O)[C@@H](OC)C(=O)[C@H](C)C[C@H](C)/C=C/C=C/C=C/1C [zotarolimus] -0.181
C[C@@H](N)c1ccc(C(=O)Nc2ccnc3[nH]ccc23)cc1 0.308
C/C(=N\NC(=O)c1cccc(S(=O)(=O)N2CCOCC2)c1)c1cc(Cl)ccc1O -0.163
NC1(c2ccc(-c3nc4ccn5c(=O)[nH]nc5c4cc3-c3ccccc3)cc2)CCC1 0.246
CCN(CCCOc1ccc2c(Nc3cc(CC(=O)Nc4cccc(F)c4)[nH]n3)ncnc2c1)CCOP(=O)(O)O [barasertib] 0.183
COc1cc(Nc2ncc3c(n2)-c2ccc(Cl)cc2C(c2c(F)cccc2OC)=NC3)ccc1C(=O)O [alisertib] -0.119
